{"source": "PubChem BioAssay AID504786 (Drosophila RNAi Screening Center, 2011)", "test": "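Positive regulators of HIF-driven reporter output in Drosophila cells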 (primary screen)", "system": "Drosophila S2 cells with a stable HIF luciferase reporter", "knock-down reagent": "long dsRNA against Drosophila genes, about 0.2 µg dsRNA per well of a 384-well plate", "time to read-out": "three days of knock-down, then 20 h of DFO before reading", "conditions": "desferrioxamine (DFO) at 100 µM, an iron chelator that mimics hypoxia, for 20 h", "measurement": "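HIF reporter luminescence in cells given 100 µM DFO for 20 h, using the mouse ldh-a hypoxia-response element, scored as per-plate z-scores; higher means greater loss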", "scale": "z-score: higher = stronger loss of HIF reporter signal", "note": "In all, the deposit lists about 21,000 reagents; this is a random part of those with a known target gene and a result. 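Primary screen; positive scores mean lost reporter signal, so the sign may be inverted from the usual convention.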 Reagents against one gene are numbered here. Names joined by + are all predicted targets of the reagent. Not all columns of the deposit are shown."}
{"predicted target": "enok", "dsRNA no.": 1, "z-score, replicate 1": 1.3}
{"predicted target": "RpS16", "dsRNA no.": 1, "z-score, replicate 1": 4.1}
{"predicted target": "Prosalpha3T", "dsRNA no.": 1, "z-score, replicate 1": -0.4}
{"predicted target": "pxb", "dsRNA no.": 1, "z-score, replicate 1": 0.6}
{"predicted target": "pxb", "dsRNA no.": 2, "z-score, replicate 1": -0.5}
{"predicted target": "pxb", "dsRNA no.": 3, "z-score, replicate 1": -0.4}
{"predicted target": "to", "dsRNA no.": 1, "z-score, replicate 1": -0.1}
{"predicted target": "CG6262", "dsRNA no.": 1, "z-score, replicate 1": 0.7}
{"predicted target": "CG11550", "dsRNA no.": 1, "z-score, replicate 1": -0.1}
{"predicted target": "dor", "dsRNA no.": 1, "z-score, replicate 1": -0.2}
{"predicted target": "GstD9", "dsRNA no.": 1, "z-score, replicate 1": -0.3}
{"predicted target": "ND-B8", "dsRNA no.": 1, "z-score, replicate 1": -0.3}
{"predicted target": "Prosbeta3", "dsRNA no.": 1, "z-score, replicate 1": 6.1}
{"predicted target": "l(3)72Dp", "dsRNA no.": 1, "z-score, replicate 1": -0.3}
{"predicted target": "tpr", "dsRNA no.": 1, "z-score, replicate 1": -0.2}
{"predicted target": "CG11211", "dsRNA no.": 1, "z-score, replicate 1": -0.4}

Records above whose target name begins with T or t:
{"predicted target": "to", "dsRNA no.": 1, "z-score, replicate 1": -0.1}
{"predicted target": "tpr", "dsRNA no.": 1, "z-score, replicate 1": -0.2}

More records:
{"predicted target": "CG11837", "dsRNA no.": 1, "z-score, replicate 1": -0.3}
{"predicted target": "CG34267", "dsRNA no.": 1, "z-score, replicate 1": -0.5}
{"predicted target": "CG3592", "dsRNA no.": 1, "z-score, replicate 1": -0.3}
{"predicted target": "CG15529", "dsRNA no.": 1, "z-score, replicate 1": 0.2}
{"predicted target": "CG14628", "dsRNA no.": 1, "z-score, replicate 1": -0.4}
{"predicted target": "GlnRS", "dsRNA no.": 1, "z-score, replicate 1": 0.5}
{"predicted target": "Cyp28d1", "dsRNA no.": 1, "z-score, replicate 1": -0.4}
{"predicted target": "Osi20", "dsRNA no.": 1, "z-score, replicate 1": -0.3}
{"predicted target": "CG14767", "dsRNA no.": 1, "z-score, replicate 1": -0.2}
{"predicted target": "CG8757", "dsRNA no.": 1, "z-score, replicate 1": -0.3}
{"predicted target": "mld", "dsRNA no.": 1, "z-score, replicate 1": -0.5}
{"predicted target": "mld", "dsRNA no.": 2, "z-score, replicate 1": -0.2}
{"predicted target": "B4", "dsRNA no.": 1, "z-score, replicate 1": -0.2}
{"predicted target": "B4", "dsRNA no.": 2, "z-score, replicate 1": -0.3}
{"predicted target": "Khc", "dsRNA no.": 1, "z-score, replicate 1": -0.3}
{"predicted target": "CG42369", "dsRNA no.": 1, "z-score, replicate 1": -0.2}
{"predicted target": "CG7203", "dsRNA no.": 1, "z-score, replicate 1": -0.1}
{"predicted target": "CG12877", "dsRNA no.": 1, "z-score, replicate 1": -0.1}
{"predicted target": "Cnep1r1", "dsRNA no.": 1, "z-score, replicate 1": -0.1}
{"predicted target": "mEFTu2", "dsRNA no.": 1, "z-score, replicate 1": 0.1}
{"predicted target": "Gr64d + Gr64e", "dsRNA no.": 1, "z-score, replicate 1": -0.4}
{"predicted target": "CG12926", "dsRNA no.": 1, "z-score, replicate 1": -0.4}
{"predicted target": "Fbw5", "dsRNA no.": 1, "z-score, replicate 1": -0.4}
{"predicted target": "CG10194", "dsRNA no.": 1, "z-score, replicate 1": -0.3}
